# Experimental data taken from PubChem BioAssay AID2685 (National Center for Advancing Translational Sciences (NCATS), 2010).
# Screen size: about 320,000 compounds; about 2,100 (0.66%) were called active. Inconclusive means that the source gave no clear call. Such entries were picked first, then a sample of the others. Calls come from the whole dose curve; as a rule, active = well fitted inhibition curve with a large enough effect in the signal ratio, with a control signal flat (not every such curve was filed as active); inconclusive = small, poorly fitted or top-dose-only effect, or effect the other way, or a change in a side signal; inactive = flat fitted curve, though single readings scatter; the % refers to the signal ratio. Potencies beside an inconclusive call are fits to weak or partial responses and may not hold up.
# Assay: qHTS Assay for Lipid Storage Modulators in Drosophila S3 Cells
# Conditions: BODIPY lipid droplet fluorescence, 18-24 h, cells fed with added oleic acid; lipid storage change, negative = inhibition: at 46.1 µM (top of the series) unless noted
# Summary of the method: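 Laser-scanning cytometry quantifies lipid droplet accumulation (500–530 nm total intensity; droplet/cell object ratio) in oleic acid-fed (400 uM added) Drosophila S3 cells treated with a concentration series. 20 uM Triacsin C defined 100% inhibition.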
# % is set by controls: 0 for no effect and ±100 for the full control effect; potency is the fitted concentration of half-maximal effect.
Structure (SMILES),Potency,"lipid storage change, negative = inhibition"
COc1ccc(-n2c(Cc3cccn3C)nnc2SCC(=O)Nc2cccc(OC)c2)cc1,"inconclusive: 8.2 µM [activator, partial curve]",
Cc1ccc(C(=O)Nc2ccc(N3CCN(C(=O)c4ccco4)CC3)cc2)c(Cl)c1,"inconclusive: 6.51 µM [activator, single point]",
CC(C)(C)c1ccc(C(=O)Nc2cnccn2)cc1,,inconclusive: 46.2%
C#CCOc1ccc2ccccc2c1/C=C(/C#N)c1ccc(C(=O)O)cc1,,inconclusive: 14.2%
Cc1ccc(C)c(Nc2cc(C)nc3ncnn23)c1,,inconclusive: 16.9%
CCOC(=O)c1cnc2c(C#N)c(C)nn2c1-c1ccccc1,"inconclusive: 9.2 µM [activator, partial curve, poor fit]",
CCOC(=O)C1C(c2ccccc2)N(C)OC1(O)C(F)(F)F (stereo not given),,inconclusive: -14.8%
CC(=O)Nc1cc(N=Cc2ccc(O)cc2O)c(Cl)cc1Cl,"inconclusive: 11.6 µM [activator, partial curve]",
CCn1cc(/C=N/NC(=O)COc2cccc3cccnc23)c2ccccc21,,inconclusive: -50.8%
CC(=O)n1cc([C@H]2C=C(C(=O)N3CCN(Cc4ccccc4)CC3)O[C@@H](OCc3ccc(CO)cc3)C2)c2ccccc21,,inconclusive: -44.8%
Cc1c(C(=O)NCc2cccs2)oc2ccc(S(=O)(=O)N3CCOCC3)cc12,"inconclusive: 13 µM [rising, partial curve, poor fit]",
O=C(NCCc1ccccc1)C1CCCN1S(=O)(=O)c1cccc2nsnc12 (stereo not given),,inconclusive: 35.8%
O=C(CS(=O)(=O)c1cn(CC(=O)N2CCOCC2)c2ccccc12)NCc1ccc(F)cc1,,inconclusive: -13.8%
OC(COCc1cccs1)CN1CCN(c2cccc(Cl)c2)CC1 (stereo not given),"inconclusive: 29.1 µM [falling, single point]",
O=C(c1ccc(Cl)c(S(=O)(=O)N2CCOCC2)c1)N1CCCC1,"inconclusive: 18.4 µM [activator, partial curve]",
COc1cc(NC(=O)CSc2ncnc3sc4c(c23)CCCC4)c(C(=O)O)cc1OC,"inconclusive: 0.651 µM [activator, full curve, poor fit]",
Cc1cc(C(=O)Nc2ccc(C)c(S(=O)(=O)N3CCOCC3)c2)c2ccccc2n1,,inconclusive: 75.8%
CC(OC(=O)CC1CCCC1)C(=O)Nc1ccc(Cl)cn1 (stereo not given),"inconclusive: 6.51 µM [falling, single point]",
C/C(=N/OC(=O)c1c(-c2c(Cl)cccc2Cl)noc1C)c1cnccn1,,inconclusive: 5.63%
CCOC(=O)N1CCC(=C(C#N)C(=O)Nc2cc(OC)ccc2OC)CC1,,inconclusive: -13.2%
CC(C)(C)c1ccc(C(=O)NCC(=O)NCc2ccccn2)cc1,,inconclusive: -4.07%
CCC(C)Sc1ccc([C@H]2N[C@@](CC(C)C)(C(=O)OC)[C@H]3C(=O)N(CC)C(=O)[C@@H]23)cc1 (stereo not given in full),"inconclusive: 18.4 µM [cytotoxic, partial curve]",
CCOC(=O)C1C(c2ccc(O)cc2)NC(=O)NC1(O)C(F)(F)F (stereo not given),,inconclusive: 32.7%
COc1ccc(C2=NN(C(=O)CSc3ncccn3)C(c3ccc(OC)cc3)C2)cc1 (stereo not given),,inactive
CC(=O)Nc1ccc(S(=O)(=O)Nc2ccc3c(c2)OCO3)cc1,"inconclusive: 18.4 µM [falling, single point]",

# Quoted at random: 3 compounds from above
Structure (SMILES),Potency,"lipid storage change, negative = inhibition"
CCOC(=O)C1C(c2ccccc2)N(C)OC1(O)C(F)(F)F (stereo not given),,inconclusive: -14.8%
CC(C)(C)c1ccc(C(=O)Nc2cnccn2)cc1,,inconclusive: 46.2%
Cc1cc(C(=O)Nc2ccc(C)c(S(=O)(=O)N3CCOCC3)c2)c2ccccc2n1,,inconclusive: 75.8%

# (list continues)

Structure (SMILES),Potency,"lipid storage change, negative = inhibition"
CCc1ccccc1N(CC(=O)NC1CCCCC1)C(=O)CCC(=O)Nc1ccccn1,"inconclusive: 1.16 µM [falling, single point]",
CCCCC(C(=O)OCC(=O)c1ccc(OC)cc1)N1C(=O)c2ccccc2C1=O (stereo not given),,inconclusive: -18.3%
CC(C)c1ccc(NC(=O)CSc2n[nH]c(=O)n2-c2cccnc2)cc1,"inconclusive: 16.4 µM [activator, single point]",
S=c1[nH]c2ccccc2o1,"inconclusive: 0.092 µM [falling, full curve, poor fit]",
COCCNS(=O)(=O)c1ccc(-c2ccc(C)cc2)cc1,,inconclusive: 220%
CCCOc1ccc(CSc2nnc(CCC)n2N)cc1,,inconclusive: 11.9%
CN1C(=O)C(C)(C)c2cc(S(=O)(=O)NCC3CCC(C(=O)NC4CCCCC4)CC3)ccc21 (stereo not given),"inconclusive: 29.1 µM [falling, single point]",
Cn1c(CC(=O)Nc2ccccc2F)nnc1SCC(=O)N1CCOCC1,,inconclusive: 18.4%
CCOc1ccc(CCNC(=O)CCNC(=O)c2ccccc2Cl)cc1OCC,,inconclusive: -38.5%
COc1ccc(Cl)cc1NC(=O)C(C)N1CCN(c2ccccn2)CC1 (stereo not given),"inconclusive: 7.31 µM [activator, partial curve]",
CCOC(=O)c1nnn(-c2nonc2N)c1CN(CC)CC,"inconclusive: 29.1 µM [falling, single point]",
COc1ccc(OCCN2CCN(C(=O)c3ccc(OC(F)F)c(OC)c3)CC2)cc1,,inconclusive: 6.59%
Cc1cc(/C=C2/NC(=O)N(Cc3ccccc3F)C2=O)c(C)n1C(C)C,,inconclusive: 26.7%
CC1CCN(C(=O)COC(=O)CSc2ccc(C(N)=O)cc2[N+](=O)[O-])CC1,,inconclusive: 8.65%
COCCn1c(C)cc(C2=NNC(=Nc3ccccc3F)SC2)c1C,,inconclusive: 24.3%
Cn1c(-c2ccc(F)cc2)cnc1SCC(=O)NNC(=O)Cc1ccccc1,,inconclusive: -3.96%
CCN(CC)S(=O)(=O)c1ccc2c(c1)c(=O)c(C(=O)N1CCOCC1)cn2C,"inconclusive: 0.164 µM [falling, full curve, poor fit]",
O=S1OC(c2ccccc2)c2cc(Cl)ccc21 (stereo not given),,inconclusive: -3.27%
COC(=O)C(Cc1ccc(O)cc1)NC(=O)c1ccc2c(c1)OCCO2 (stereo not given),"inconclusive: 6.51 µM [activator, partial curve, poor fit]",
O=C(CCN1C(=O)/C(=C/c2ccccc2F)SC1=S)NCCCN1CCOCC1,"inconclusive: 2.91 µM [activator, single point]",
Cc1ccc(/C=N/NC(=O)c2ccncc2)cc1,,inconclusive: 129%
O=C(O)CNC(=O)c1ccc(OC(F)F)cc1,,inconclusive: -12.1%
Cc1cccc(OCC(=O)Nc2ccc3oc(=O)ccc3c2)c1C,"inconclusive: 6.51 µM [falling, single point]",
Cc1c(N=Cc2ccc(-c3ccc(Cl)cc3)o2)c(=O)n(-c2ccccc2)n1C,,inconclusive: -42.9%
CCN(CC)CCOCCOc1ccc(Cl)c2ccccc12,,inconclusive: -8.14%

Structure (SMILES),Potency,"lipid storage change, negative = inhibition"
C=CCN1CCN(C(CC(C)C)c2nnnn2CCOC)CC1 (stereo not given),,inconclusive: -9.47%
CC(=O)Nc1ccc(SCc2csc(C)n2)cc1,,inconclusive: -22.8%
Cc1ccc2c(c1)c1ncnc(N3CCc4ccccc4C3)c1n2C,,inconclusive: 34%
OCC[C@@H]1C[C@@H](O)[C@H](O)[C@@]2(OCc3ccccc32)O1,"inconclusive: 6.51 µM [activator, partial curve, poor fit]",
CCCNC(=O)c1ccc(N2CCC3(CC2)CC(c2cccc(Br)c2)=NO3)c([N+](=O)[O-])c1,,inconclusive: -47.1%
Cc1cccc(NC(=O)/C(=C\c2ccco2)NC(=O)c2ccccc2)c1,"inconclusive: 0.291 µM [activator, full curve]",
CN1CCN(C(=S)C(=O)Nc2ccccc2)CC1,,inconclusive: 112%
CS(=O)(=O)N(CC(=O)N1CCN(c2ccccc2F)CC1)c1ccc2c(c1)OCCO2,,inconclusive: 63.1%
O=C1c2cccc3c([N+](=O)[O-])ccc(c23)C(=O)N1c1nccs1,,inconclusive: 41.1%
Cc1cc(NC(=O)CSC2=NS(=O)(=O)c3cc(F)ccc3N2)no1,,inconclusive: -9.43%
COc1ccc(-c2ccc(S(=O)(=O)N3CCOCC3)cc2)cc1,,inconclusive: 40.4%
CCOC(=O)/C(C#N)=C/Nc1ccccc1OC,"inconclusive: 1.46 µM [falling, full curve]",
Cc1ccccc1OCCNc1ccc(C(F)(F)F)cc1[N+](=O)[O-],,inactive
CCN(C1CCS(=O)(=O)C1)S(=O)(=O)c1cc(C)ccc1C (stereo not given),,inconclusive: 37.7%
O=C(Nc1nc(-c2ccccc2)c(C(=O)c2ccccc2)s1)c1ccc(S(=O)(=O)N2CCCCC2)cc1,,inconclusive: 9.25%
O=C(NCc1ccccc1)NC1CC2CCC(C1)N2Cc1ccco1 (stereo not given),"inconclusive: 29.1 µM [activator, single point]",
CCc1nnc(NC(=O)CSc2nnc(-c3ccccc3O)n2-c2ccc(C)cc2)s1,,inconclusive: -1.02%
Cn1c2ccccc2c2nnc(SCN3C(=O)c4ccccc4C3=O)nc21,,inconclusive: 32.1%
C=CCn1cc(C(=O)N2CCN(C)CC2)c(=O)c2cc(S(=O)(=O)N3CCCC3)ccc21,"inconclusive: 3.66 µM [activator, single point]",
CC(C(=O)O)N(c1ccccc1Cl)S(C)(=O)=O (stereo not given),,inconclusive: 10.9%
CCn1cc(C(=O)O)c(=O)c2cc(Br)ccc21,,inconclusive: 9.95%
Cc1ccc(NC(=O)C(c2ccc(Cl)cc2Cl)N2CCCC2)cc1 (stereo not given),,inconclusive: -4.61%
CNc1snc(C)c1C(=O)OCC(=O)c1ccc(Cl)cc1,,inconclusive: -76.8%
CCOC(=O)c1cnc2c(c(C)nn2C)c1Oc1ccccc1F,"inconclusive: 29.1 µM [cytotoxic, single point]",
COC(=O)c1ccccc1NC(=O)NCC1CCCO1 (stereo not given),,inconclusive: -28.3%
